Measured values from patent US20100061938A1, “MRI TRACKABLE DRUG DELIVERY PARTICLES, USES AND METHODS THEREOF” (EPITARGET AS, priority 2006, published 2010).

Assay: T1 relaxation times of gel phantom samples by MR at 1.5 T, pre/post ultrasound and surfactant
Settings: 1 mM non-liposomal control solution

Compound	T1 (POST US+ surfactant) [ms]	T1 (POST US) [ms]	T1 (PRE US) [ms]
CNC(=O)CN(CCN(CCN(CC(=O)[O-])CC(=O)NC)CC(=O)[O-])CC(=O)[O-].[Gd+3] [GdDTPA-BMA]	146	139	137
CNC(=O)CN(CCN(CCN(CC(=O)[O-])CC(=O)NC)CC(=O)[O-])CC(=O)[O-].[Dy+3] [DyDTPA-BMA]	978	937	923
